PubChem BioAssay AID1259254 | NCATS – 2017

- Aim: 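Genome-wide screen for genes that prevent DNA re-replication in cancer cells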 (primary screen)
- Cell system: human HCT116 colorectal cancer cells
- Reagent: single siRNA against human genes
- Time to read-out: 3 days
- Read-out: 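Imaged Hoechst DNA stain sorts each cell into a cycle phase by DNA amount; per plate, G2 fraction set to 0% for non-targeting and 100% for GMNN siRNA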
- Direction: G2 robust z-score and G2 cells, % of GMNN control: higher = more G2 cells, more excess DNA replication; raw share of cells in G2: higher = larger share of cells with G2 DNA content
- Call rule: 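An siRNA counts as active if its G2 robust z-score lies at least 5 MADs above the screen median; here such calls match roughly 38% of GMNN control or more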
Here is an unselected part of about 59,000 reagents tested. About 1,550 of them (2.6%) were called active. 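G2 share is only a proxy for re-replication; each gene was hit by three separate siRNAs, and active genes were retested.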 Raw values vary from plate to plate and are shown uncorrected. A number with no mark means an inactive call. Reagents against one gene are numbered here. Not stated in the record: the amount of reagent.

The first 8 records, to show the layout:
Gene	reagent no.	G2 robust z-score	G2 cells, % of GMNN control	raw share of cells in G2 (%)
ANGPTL6	1	-0.841	-2.95	3.69
ANGPTL6	2	-0.297	0.881	4.51
ANGPTL6	3	-0.981	-3.93	3.79
PRDX4	1	2.2	18.4	13.8
PRDX4	2	-0.55	-0.903	5.3
PRDX4	3	2.28	19	9.99
GTF3C5	1	-0.539	-0.824	4.41
GTF3C5	2	-0.529	-0.756	5

The list itself, from the first entry:
Gene	reagent no.	G2 robust z-score	G2 cells, % of GMNN control	raw share of cells in G2 (%)
ANGPTL6	1	-0.841	-2.95	3.69
ANGPTL6	2	-0.297	0.881	4.51
ANGPTL6	3	-0.981	-3.93	3.79
PRDX4	1	2.2	18.4	13.8
PRDX4	2	-0.55	-0.903	5.3
PRDX4	3	2.28	19	9.99
GTF3C5	1	-0.539	-0.824	4.41
GTF3C5	2	-0.529	-0.756	5
GTF3C5	3	1.64	14.5	11.1
CWC22	1	1.48	13.4	9.62
CWC22	2	-0.453	-0.219	4.36
CWC22	3	-0.75	-2.31	2.3
CNN3P1	1	-0.528	-0.745	3.35
CNN3P1	2	1.01	10.1	6.9
CNN3P1	3	1.44	13.1	6.97
ZFTA	1	0.272	4.88	6.71
ZFTA	2	-0.78	-2.52	3.48
ZFTA	3	1.81	15.7	6.85
PTPRK	1	-0.0231	2.8	5.71
PTPRK	2	4.25	32.9	14.2
PTPRK	3	-1.19	-5.4	1.87
EIF3B	1	5.94 (active)	44.8	20.7
EIF3B	2	5.2 (active)	39.6	19.2
EIF3B	3	3.39	26.8	16.7
UBE2NL	1	0.151	4.03	5.16
UBE2NL	2	-0.794	-2.62	3.51
UBE2NL	3	-0.194	1.6	4.32
CHCHD2P6	1	-0.568	-1.03	3.25
CHCHD2P6	2	-0.777	-2.5	2.37
CHCHD2P6	3	0.0413	3.26	4.09
TARDBP	1	-0.799	-2.66	2.96
TARDBP	2	-0.694	-1.92	3.51
TARDBP	3	4.83	36.9	21.2
ATP6V0A2	1	1.75	15.3	12.5
ATP6V0A2	2	-0.0629	2.52	5
ATP6V0A2	3	-0.192	1.61	4.42
CENPBD2P	1	2.08	17.6	12.3
CENPBD2P	2	1.6	14.2	11
CENPBD2P	3	0.437	6.04	4.29
MGAT5	1	0.97	9.79	9.35
MGAT5	2	0.21	4.45	4.66
MGAT5	3	-1.11	-4.86	3.48
CYP2F1	1	0.269	4.86	5.77
CYP2F1	2	4.35	33.6	17.3
CYP2F1	3	1.33	12.3	9.36
H2AC20	1	-0.392	0.208	5.22
H2AC20	2	0.651	7.54	6.89
H2AC20	3	-0.144	1.95	4.04
FANCE	1	-0.143	1.96	6.22
FANCE	2	-0.706	-2	3.35
FANCE	3	2.21	18.5	10.8
PACRG	1	0.326	5.26	6.16
PACRG	2	0.098	3.66	4.26
PACRG	3	-0.814	-2.76	1.58
SLC25A13	1	-0.46	-0.269	6.37
SLC25A13	2	-0.631	-1.48	5.05
SLC25A13	3	0.0794	3.53	4.98
EFHB	1	-0.515	-0.655	2.87
EFHB	2	-0.306	0.813	3.45
EFHB	3	1.64	14.5	8.61
CNNM4	1	-0.678	-1.8	3.73
CNNM4	2	0.0878	3.59	5.49
CNNM4	3	0.975	9.83	6.73
GNAT3	1	-0.389	0.228	4.06
GNAT3	2	-0.616	-1.36	2.66
GNAT3	3	-0.0525	2.6	5.24
MMP16	1	-0.796	-2.63	4.64
MMP16	2	0.0917	3.61	6.19
MMP16	3	0.44	6.06	6.17
